Results reported in the supplement of paper PMC10735217.
Structures can show the parent of a compound that is named as a salt. Some of the results follow. Repeats in this data set agree poorly, so a single value says little.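 In a drug-repurposing library screen, luminescence reads luciferase driven by eight TEAD-binding elements, stably integrated into human kidney-derived cells. Compounds scoring over five robust Z scores above the plate mean are called hits.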

Tested on: HEK293A TEAD-LUC reporter
Assay: TEAD-luciferase reporter activity (YAP activation), robust Z score vs plate; higher = stronger YAP/TEAD activation
Conditions: 24 h

For `CC1CCC(C(=O)CCC(=O)O)CC1` (stereo not given), the TEAD-luciferase reporter activity (compound concentration: 200 nM) was inactive: -1.07, the TEAD-luciferase reporter activity (compound concentration: 2 uM) was inactive: -0.941 and the TEAD-luciferase reporter activity (compound concentration: 10 uM) was inactive: -0.717.

With `CC[C@H](C)CCN(C(=O)CNC(=O)Nc1cccc(CC(=O)O)c1)c1ccccc1OCC(=O)N(C)c1ccccc1` the TEAD-luciferase reporter activity (compound concentration: 200 nM) was inactive: -1.55, the TEAD-luciferase reporter activity (compound concentration: 2 uM) was inactive: -0.288 and the TEAD-luciferase reporter activity (compound concentration: 10 uM) was inactive: -0.00538.

For `CN(C)c1ccc2c(c1)Sc1cc(N(C)C)ccc1N2` [Leuco methylthioninium salt], the TEAD-luciferase reporter activity (compound concentration: 200 nM) was inactive: -1.02, the TEAD-luciferase reporter activity (compound concentration: 2 uM) was inactive: 1.51 and the TEAD-luciferase reporter activity (compound concentration: 10 uM) was inactive: 3.48.

In the case of `CCc1c(C)[nH]c2c1C(=O)C(CN1CCOCC1)CC2` (stereo not given) [Moban], the TEAD-luciferase reporter activity (compound concentration: 200 nM) is reported as inactive: 0.299 and the TEAD-luciferase reporter activity (compound concentration: 10 uM) is reported as inactive: 0.518.

In the case of `CCc1c(C)[nH]c2c1C(=O)C(CN1CCOCC1)CC2` (stereo not given) [molindone], the TEAD-luciferase reporter activity (compound concentration: 2 uM) is reported as inactive: -0.467.

With `Cn1/c(=N\C#N)n(-c2ccc(C(C)(C)C#N)nc2)c2c3cc(-c4cnc(N)c(C(F)(F)F)c4)ccc3ncc21` [Panulisib] the TEAD-luciferase reporter activity (compound concentration: 200 nM) was inactive: -2.42, the TEAD-luciferase reporter activity (compound concentration: 2 uM) was inactive: -3.26 and the TEAD-luciferase reporter activity (compound concentration: 10 uM) was inactive: -2.74.

With `Nc1nc(Nc2ccccc2)nc2c1ncn2[C@@H]1O[C@H](CO)[C@@H](O)[C@H]1O` the TEAD-luciferase reporter activity (compound concentration: 200 nM) was inactive: -0.478, the TEAD-luciferase reporter activity (compound concentration: 2 uM) was inactive: -0.631 and the TEAD-luciferase reporter activity (compound concentration: 10 uM) was inactive: -0.0499.

With `O=C(O)c1ccc(NC(=O)[C@H](Cc2ccc(O)cc2)NC(=O)c2ccccc2)cc1` [bentiromide] the TEAD-luciferase reporter activity (compound concentration: 200 nM) was inactive: -0.374, the TEAD-luciferase reporter activity (compound concentration: 2 uM) was inactive: -0.276 and the TEAD-luciferase reporter activity (compound concentration: 10 uM) was inactive: -0.859.

For `NCCCCC(N)C(=O)OC1Cc2c(O)cc(O)cc2OC1c1ccc(O)c(O)c1` (stereo not given), the TEAD-luciferase reporter activity (compound concentration: 200 nM) was inactive: -1.69, the TEAD-luciferase reporter activity (compound concentration: 2 uM) was inactive: -0.911 and the TEAD-luciferase reporter activity (compound concentration: 10 uM) was inactive: 2.12.

In the case of `Cc1ccc2oc(-c3cc(Br)ccc3O)cc(=O)c2c1`, the TEAD-luciferase reporter activity (compound concentration: 200 nM) is reported as inactive: 1.43, the TEAD-luciferase reporter activity (compound concentration: 2 uM) is reported as inactive: 0.0699 and the TEAD-luciferase reporter activity (compound concentration: 10 uM) is reported as inactive: 2.77.

With `O=C(NCc1ccccc1)C1CCN(Cc2c(-c3ccccc3)nc3ccccn23)CC1` the TEAD-luciferase reporter activity (compound concentration: 200 nM) was inactive: 0.216, the TEAD-luciferase reporter activity (compound concentration: 2 uM) was inactive: -0.72 and the TEAD-luciferase reporter activity (compound concentration: 10 uM) was inactive: 1.08.

For `O=C(O)c1ccc(CCCc2c(CCNS(=O)(=O)Cc3ccc(Cl)c(Cl)c3)n(C(c3ccccc3)c3ccccc3)c3ccc(Cl)cc23)cc1`, the TEAD-luciferase reporter activity (compound concentration: 200 nM) was inactive: 0.0458, the TEAD-luciferase reporter activity (compound concentration: 2 uM) was inactive: -0.681 and the TEAD-luciferase reporter activity (compound concentration: 10 uM) was inactive: -1.16.

With `C=C1/C(=C\C=C2/CCC[C@]3(C)[C@@H]([C@H](C)CCCC(C)(C)O)CC[C@@H]23)C[C@@H](O)C[C@@H]1O` the TEAD-luciferase reporter activity (compound concentration: 200 nM) was inactive: 1.07, the TEAD-luciferase reporter activity (compound concentration: 2 uM) was inactive: 2 and the TEAD-luciferase reporter activity (compound concentration: 10 uM) was inactive: 3.31.

With `CNCC1CC2c3ccccc3Cc3ccc(F)cc3C2O1` (stereo not given) the TEAD-luciferase reporter activity (compound concentration: 200 nM) was inactive: -0.541, the TEAD-luciferase reporter activity (compound concentration: 2 uM) was inactive: -1.05 and the TEAD-luciferase reporter activity (compound concentration: 10 uM) was inactive: -1.04.

With `C[n+]1ccc(C(=O)NCc2ccccc2)cc1` [Enisamium iodide] the TEAD-luciferase reporter activity (compound concentration: 200 nM) was inactive: -2.63, the TEAD-luciferase reporter activity (compound concentration: 2 uM) was inactive: 1.46 and the TEAD-luciferase reporter activity (compound concentration: 10 uM) was inactive: -0.333.

For `O=S(=O)(Nc1cccc(OCc2ccc3ccccc3n2)c1)C(F)(F)F` [Ritolukast], the TEAD-luciferase reporter activity (compound concentration: 200 nM) was inactive: -0.0414, the TEAD-luciferase reporter activity (compound concentration: 2 uM) was inactive: 3.95 and the TEAD-luciferase reporter activity (compound concentration: 10 uM) was inactive: 3.7.

For `CC(O)COC[C@H]1O[C@@H]2O[C@H]3[C@H](O)[C@@H](O)[C@@H](O[C@H]4[C@H](O)[C@@H](O)[C@@H](O[C@H]5[C@H](O)[C@@H](O)[C@@H](O[C@H]6[C@H](O)[C@@H](O)[C@@H](O[C@H]7[C@H](O)[C@@H](O)[C@@H](O[C@H]8[C@H](O)[C@@H](O)[C@@H](O[C@H]1[C@H](O)[C@H]2O)O[C@@H]8COCC(C)O)O[C@@H]7COCC(C)O)O[C@@H]6COCC(C)O)O[C@@H]5COCC(C)O)O[C@@H]4COCC(C)O)O[C@@H]3COCC(C)O` (stereo partly drawn) [Hydroxypropyl-beta-cyclodextrin], the TEAD-luciferase reporter activity (compound concentration: 200 nM) was inactive: 1.51, the TEAD-luciferase reporter activity (compound concentration: 2 uM) was inactive: -1.7 and the TEAD-luciferase reporter activity (compound concentration: 10 uM) was inactive: 0.88.

With `CO[C@H]1O[C@H](COS(=O)(=O)O)[C@@H](O[C@@H]2O[C@@H](C(=O)O)[C@@H](O[C@H]3O[C@H](COS(=O)(=O)O)[C@@H](O[C@@H]4O[C@H](C(=O)O)[C@@H](O[C@H]5O[C@H](COS(=O)(=O)O)[C@@H](O)[C@H](O)[C@H]5NS(=O)(=O)O)[C@H](O)[C@H]4O)[C@H](OS(=O)(=O)O)[C@H]3NS(=O)(=O)O)[C@H](O)[C@H]2OS(=O)(=O)O)[C@H](O)[C@H]1NS(=O)(=O)O` [Fondaparinux (sodium)] the TEAD-luciferase reporter activity (compound concentration: 2 uM) was inactive: -0.696 and the TEAD-luciferase reporter activity (compound concentration: 10 uM) was inactive: -0.543.

In the case of `c1ccc2c(c1)CN1CCCC1=N2` [Deoxypeganine], the TEAD-luciferase reporter activity (compound concentration: 2 uM) is reported as inactive: 0.0653.

In the case of `c1ccc2c(c1)CN1CCCC1=N2`, the TEAD-luciferase reporter activity (compound concentration: 200 nM) is reported as inactive: 1.57 and the TEAD-luciferase reporter activity (compound concentration: 10 uM) is reported as inactive: -0.49.

In the case of `CC(=O)N(CC(C)C(=O)O)c1c(I)cc(I)c(N)c1I` (stereo not given), the TEAD-luciferase reporter activity (compound concentration: 200 nM) is reported as inactive: 1.25, the TEAD-luciferase reporter activity (compound concentration: 2 uM) is reported as inactive: 0.463 and the TEAD-luciferase reporter activity (compound concentration: 10 uM) is reported as inactive: 1.71.

With `CC(C)NC(C)C(O)(c1ccccc1)c1nc2ccccc2[nH]1` (stereo not given) the TEAD-luciferase reporter activity (compound concentration: 200 nM) was inactive: -0.864, the TEAD-luciferase reporter activity (compound concentration: 2 uM) was inactive: -0.582 and the TEAD-luciferase reporter activity (compound concentration: 10 uM) was inactive: 0.134.

With `O=C(c1ccc(Cl)cc1)N1CC2(CCN(C3CCCCC3)C2)Cc2ccccc21` (stereo not given) the TEAD-luciferase reporter activity (compound concentration: 200 nM) was inactive: -0.754 and the TEAD-luciferase reporter activity (compound concentration: 10 uM) was inactive: 1.52.

For `C=C1c2cccc(O)c2C(=O)C2=C(O)[C@]3(O)C(=O)C(C(N)=O)=C(O)[C@@H](N(C)C)[C@@H]3[C@@H](O)[C@H]12`, the TEAD-luciferase reporter activity (compound concentration: 200 nM) was inactive: 3.77, the TEAD-luciferase reporter activity (compound concentration: 2 uM) was inactive: -0.25 and the TEAD-luciferase reporter activity (compound concentration: 10 uM) was inactive: -0.982.

In the case of `C[C@H](N)C(=O)N[C@H]1CCN(c2nc3c(cc2F)c(=O)c(C(=O)O)cn3C2CC2)C1`, the TEAD-luciferase reporter activity (compound concentration: 200 nM) is reported as inactive: -1.93, the TEAD-luciferase reporter activity (compound concentration: 2 uM) is reported as inactive: 0.625 and the TEAD-luciferase reporter activity (compound concentration: 10 uM) is reported as inactive: 0.0944.

With `O=S(=O)([O-])CCCS(=O)(=O)[O-]` [Eprodisate sodium] the TEAD-luciferase reporter activity (compound concentration: 200 nM) was inactive: -1.15, the TEAD-luciferase reporter activity (compound concentration: 2 uM) was inactive: -2.49 and the TEAD-luciferase reporter activity (compound concentration: 10 uM) was inactive: 0.00723.
